Laboratory results published in paper PMC11012870.

Chains of the proteins cited; added tags and fusions are not shown. Residues count along the entry.
UniProt Q9IH62: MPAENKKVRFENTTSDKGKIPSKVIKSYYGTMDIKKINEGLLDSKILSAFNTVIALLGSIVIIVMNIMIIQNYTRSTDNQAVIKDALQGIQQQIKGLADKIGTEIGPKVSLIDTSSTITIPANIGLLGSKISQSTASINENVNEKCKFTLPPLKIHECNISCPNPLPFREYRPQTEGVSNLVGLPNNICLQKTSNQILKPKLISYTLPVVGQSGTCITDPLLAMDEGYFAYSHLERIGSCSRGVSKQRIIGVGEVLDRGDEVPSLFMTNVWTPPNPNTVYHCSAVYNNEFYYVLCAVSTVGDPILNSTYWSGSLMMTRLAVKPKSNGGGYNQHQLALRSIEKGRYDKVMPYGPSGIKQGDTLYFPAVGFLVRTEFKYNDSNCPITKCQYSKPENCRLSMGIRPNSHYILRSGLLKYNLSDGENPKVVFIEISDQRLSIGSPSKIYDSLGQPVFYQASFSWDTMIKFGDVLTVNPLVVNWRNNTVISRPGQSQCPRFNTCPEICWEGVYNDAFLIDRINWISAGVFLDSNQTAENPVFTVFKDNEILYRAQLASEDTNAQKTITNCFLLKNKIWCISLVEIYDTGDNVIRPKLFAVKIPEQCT
UniProt Q9IH63, residues 27-546: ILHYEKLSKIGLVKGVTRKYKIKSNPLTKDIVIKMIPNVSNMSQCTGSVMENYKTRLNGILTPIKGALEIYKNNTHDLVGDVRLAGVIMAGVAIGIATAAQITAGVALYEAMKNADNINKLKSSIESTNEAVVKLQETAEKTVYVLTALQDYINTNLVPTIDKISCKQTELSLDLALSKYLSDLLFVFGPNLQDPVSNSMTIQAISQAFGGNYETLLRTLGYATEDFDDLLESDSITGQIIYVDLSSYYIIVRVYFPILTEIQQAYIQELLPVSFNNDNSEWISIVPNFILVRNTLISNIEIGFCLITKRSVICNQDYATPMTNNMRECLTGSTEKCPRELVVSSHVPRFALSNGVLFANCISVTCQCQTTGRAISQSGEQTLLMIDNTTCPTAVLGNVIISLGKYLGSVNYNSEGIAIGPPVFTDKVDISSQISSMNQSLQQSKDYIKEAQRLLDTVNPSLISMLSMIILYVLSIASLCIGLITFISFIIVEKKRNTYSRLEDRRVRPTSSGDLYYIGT
UniProt P16949: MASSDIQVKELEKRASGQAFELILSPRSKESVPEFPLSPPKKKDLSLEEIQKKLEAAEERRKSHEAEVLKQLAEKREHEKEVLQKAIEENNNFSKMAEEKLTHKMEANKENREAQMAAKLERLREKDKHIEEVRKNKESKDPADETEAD

Key:
[1] = molecular target: Nipah virus attachment (G) glycoprotein fused to Myc-TurboID (Nipah virus) (UniProt Q9IH62); assay: proximity labelling
[2] = molecular target: Nipah virus fusion (F) glycoprotein fused to Myc-TurboID (Nipah virus) (UniProt Q9IH63); assay: proximity labelling

Substance	binding [1]	binding [2]
Cortactin (from UniProt Q14247-1 1-550)	binds	binds
stathmin 1 (from UniProt P16949 1-149)	binds	binds

Results are given in words; binding and its absence hold for the method and conditions named. In cells and extracts the contact can be indirect. Here binding means that the protein was enriched with, or labelled near, the bait; the list need not be complete.
